Reference: patent US7851493B2, “Phenyl-1,2,4-oxadiazolone derivatives with phenyl group, processes for their preparation and their use as pharmaceuticals” (Sanofi-Aventis, priority 2005, dated 2010)
Some results were stated once for a whole list of compounds, not compound by compound.

Target: T1, human PPARalpha (Homo sapiens, UniProt Q07869)
T1 construct: amino acids S167-Y468; expressed in transfected cells; plasmid pcDNA3
T1 sequence (Q07869 167-468): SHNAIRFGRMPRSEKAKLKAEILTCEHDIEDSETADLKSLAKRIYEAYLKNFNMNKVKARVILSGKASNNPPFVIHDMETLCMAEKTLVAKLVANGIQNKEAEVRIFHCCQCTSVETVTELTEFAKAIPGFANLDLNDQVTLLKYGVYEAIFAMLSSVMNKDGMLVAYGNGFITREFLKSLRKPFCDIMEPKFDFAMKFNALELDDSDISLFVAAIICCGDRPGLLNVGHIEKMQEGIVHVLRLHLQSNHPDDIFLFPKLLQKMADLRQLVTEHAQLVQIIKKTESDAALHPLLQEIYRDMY
Assay: Cellular PPARalpha assay (human GAL4 luciferase reporter, stably transfected HEK cell line)
Assay type: cell-based
Details: range over the examples; units printed in the value (nM to μM)
Protocol: Determination of EC50 Values of PPAR Agonists in the Cellular PPARalpha Assay
The potency of substances which bind to human PPARalpha and activate it in an agonistic manner is analyzed using a stably transfected HEK cell line (HEK=human embryo kidney) which is referred to here as PPARalpha reporter cell line. It contains two genetic elements, a luciferase reporter element (pdeltaM-GAL4-Luc-Zeo) and a PPARalpha fusion protein (GR-GAL4-humanPPARalpha-LBD) which mediates expression of the luciferase reporter element depending on a PPARalpha ligand. The stably and constitutively expressed fusion protein GR-GAL4-humanPPARalpha-LBD binds in the cell nucleus of the PPARalpha reporter cell line via the GAL4 protein portion to the GAL4 DNA binding motifs 5′-upstream of the luciferase reporter element which is stably integrated in the genome of the cell line. There is only weak expression of the luciferase reporter gene in the absence of a PPARalpha ligand if fatty acid-depleted fetal calf serum (cs-FCS) is used in the assay. PPARalpha ligands bind and activate the PPARalpha fusion protein and thereby stimulate the expression of the luciferase reporter gene. The luciferase which is formed can be detected by means of chemiluminescence via an appropriate substrate. […]
The activity of PPARalpha agonists is determined in a 3-day assay, which is described below: […]

Structure (SMILES): COc1cc(OCc2sc(-c3ccc(C(F)(F)F)cc3)nc2CN(C(=O)Oc2ccccc2)C2CC2)ccc1-c1noc(=O)[nH]1 [Example 14, Cyclopropyl-[5-[3-methoxy-4-(5-oxo-4,5-dihydro-[1,2,4]oxadiazol-3-yl)-phenoxymethyl]-2-(4-trifluoromethyl-phenyl)-thiazol-4-ylmethyl]-carbamic acid phenyl ester]
- EC50: ≥ 5 nM
